Results are given in words; binding and its absence hold for the method and conditions named. Binding seen in cells or lysates may run through a third protein. Some entries that bind do so weakly or less than the wild type.
What was measured:
[1] = target: Dcc (endogenous, cerebellar granule neurons) (mouse (endogenous in cerebellar granule neurons)) (UniProt P70211); test: proximity ligation; Duolink on dissociated CGNs plated on laminin, cultured 24 h at 37 C, fixed in 2% PFA/0.5% glutaraldehyde; antibody pairs Dcc ECD + JamC ECD and Dcc ICD + Pard3; controls with no or one primary antibody
[2] = target: T1, JamC (bait of Figure S4A) (mouse) (UniProt Q9D8B7); test: co-IP; JamC as bait, Dcc extracellular or intracellular domain as prey (Figure S4A); details not shown
T1 sequence: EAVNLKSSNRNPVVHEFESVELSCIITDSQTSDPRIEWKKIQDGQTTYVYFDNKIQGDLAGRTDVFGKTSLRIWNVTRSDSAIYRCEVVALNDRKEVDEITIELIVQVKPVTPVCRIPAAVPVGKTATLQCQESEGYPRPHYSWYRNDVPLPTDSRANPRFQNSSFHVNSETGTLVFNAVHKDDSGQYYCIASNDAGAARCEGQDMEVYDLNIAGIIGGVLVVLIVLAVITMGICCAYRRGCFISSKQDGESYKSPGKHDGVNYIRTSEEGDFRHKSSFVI

Amino acid sequences for entries named in this document (tags omitted). A change or cut given only in a name is not applied to a line headed by its entry. Residues count along the entry.
UniProt P70211: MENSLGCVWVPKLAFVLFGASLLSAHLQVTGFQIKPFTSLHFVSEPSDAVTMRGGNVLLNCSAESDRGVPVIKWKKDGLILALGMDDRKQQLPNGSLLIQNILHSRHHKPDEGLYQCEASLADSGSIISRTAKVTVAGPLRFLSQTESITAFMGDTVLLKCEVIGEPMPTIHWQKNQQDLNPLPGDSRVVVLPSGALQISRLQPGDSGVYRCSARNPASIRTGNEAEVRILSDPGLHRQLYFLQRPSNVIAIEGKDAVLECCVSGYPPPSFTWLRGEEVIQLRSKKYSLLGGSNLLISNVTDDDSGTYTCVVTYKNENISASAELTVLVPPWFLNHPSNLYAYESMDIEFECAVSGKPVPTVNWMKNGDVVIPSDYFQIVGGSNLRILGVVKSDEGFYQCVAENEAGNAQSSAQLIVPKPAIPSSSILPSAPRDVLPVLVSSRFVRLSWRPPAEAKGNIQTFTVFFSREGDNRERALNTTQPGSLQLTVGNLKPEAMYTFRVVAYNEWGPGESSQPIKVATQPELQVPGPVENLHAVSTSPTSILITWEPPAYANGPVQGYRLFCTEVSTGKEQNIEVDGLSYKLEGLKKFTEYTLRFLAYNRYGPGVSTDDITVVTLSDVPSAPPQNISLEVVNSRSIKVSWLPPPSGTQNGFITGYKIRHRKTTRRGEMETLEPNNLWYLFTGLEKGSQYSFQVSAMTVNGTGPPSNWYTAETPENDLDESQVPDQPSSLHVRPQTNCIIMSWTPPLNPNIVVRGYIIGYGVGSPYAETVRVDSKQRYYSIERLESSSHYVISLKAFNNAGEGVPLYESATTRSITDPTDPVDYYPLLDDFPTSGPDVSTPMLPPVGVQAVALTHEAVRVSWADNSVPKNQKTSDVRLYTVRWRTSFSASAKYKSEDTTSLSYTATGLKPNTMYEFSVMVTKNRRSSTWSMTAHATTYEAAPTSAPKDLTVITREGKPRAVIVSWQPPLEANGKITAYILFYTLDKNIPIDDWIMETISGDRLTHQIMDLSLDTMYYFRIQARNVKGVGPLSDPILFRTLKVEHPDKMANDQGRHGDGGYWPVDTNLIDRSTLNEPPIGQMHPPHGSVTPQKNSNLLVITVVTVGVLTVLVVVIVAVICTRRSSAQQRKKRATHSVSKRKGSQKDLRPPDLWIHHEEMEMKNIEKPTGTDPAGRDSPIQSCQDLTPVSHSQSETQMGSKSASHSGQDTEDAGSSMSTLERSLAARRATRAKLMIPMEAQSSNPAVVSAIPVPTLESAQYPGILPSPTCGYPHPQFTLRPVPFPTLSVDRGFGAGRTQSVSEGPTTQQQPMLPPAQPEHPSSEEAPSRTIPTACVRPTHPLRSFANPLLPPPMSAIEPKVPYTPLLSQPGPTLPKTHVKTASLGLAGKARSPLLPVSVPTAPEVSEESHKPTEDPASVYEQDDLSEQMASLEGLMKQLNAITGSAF
Dcc (endogenous, cerebellar granule neurons) (mouse (endogenous in cerebellar granule neurons)): residues 26-1447 of P70211
UniProt Q99NH2: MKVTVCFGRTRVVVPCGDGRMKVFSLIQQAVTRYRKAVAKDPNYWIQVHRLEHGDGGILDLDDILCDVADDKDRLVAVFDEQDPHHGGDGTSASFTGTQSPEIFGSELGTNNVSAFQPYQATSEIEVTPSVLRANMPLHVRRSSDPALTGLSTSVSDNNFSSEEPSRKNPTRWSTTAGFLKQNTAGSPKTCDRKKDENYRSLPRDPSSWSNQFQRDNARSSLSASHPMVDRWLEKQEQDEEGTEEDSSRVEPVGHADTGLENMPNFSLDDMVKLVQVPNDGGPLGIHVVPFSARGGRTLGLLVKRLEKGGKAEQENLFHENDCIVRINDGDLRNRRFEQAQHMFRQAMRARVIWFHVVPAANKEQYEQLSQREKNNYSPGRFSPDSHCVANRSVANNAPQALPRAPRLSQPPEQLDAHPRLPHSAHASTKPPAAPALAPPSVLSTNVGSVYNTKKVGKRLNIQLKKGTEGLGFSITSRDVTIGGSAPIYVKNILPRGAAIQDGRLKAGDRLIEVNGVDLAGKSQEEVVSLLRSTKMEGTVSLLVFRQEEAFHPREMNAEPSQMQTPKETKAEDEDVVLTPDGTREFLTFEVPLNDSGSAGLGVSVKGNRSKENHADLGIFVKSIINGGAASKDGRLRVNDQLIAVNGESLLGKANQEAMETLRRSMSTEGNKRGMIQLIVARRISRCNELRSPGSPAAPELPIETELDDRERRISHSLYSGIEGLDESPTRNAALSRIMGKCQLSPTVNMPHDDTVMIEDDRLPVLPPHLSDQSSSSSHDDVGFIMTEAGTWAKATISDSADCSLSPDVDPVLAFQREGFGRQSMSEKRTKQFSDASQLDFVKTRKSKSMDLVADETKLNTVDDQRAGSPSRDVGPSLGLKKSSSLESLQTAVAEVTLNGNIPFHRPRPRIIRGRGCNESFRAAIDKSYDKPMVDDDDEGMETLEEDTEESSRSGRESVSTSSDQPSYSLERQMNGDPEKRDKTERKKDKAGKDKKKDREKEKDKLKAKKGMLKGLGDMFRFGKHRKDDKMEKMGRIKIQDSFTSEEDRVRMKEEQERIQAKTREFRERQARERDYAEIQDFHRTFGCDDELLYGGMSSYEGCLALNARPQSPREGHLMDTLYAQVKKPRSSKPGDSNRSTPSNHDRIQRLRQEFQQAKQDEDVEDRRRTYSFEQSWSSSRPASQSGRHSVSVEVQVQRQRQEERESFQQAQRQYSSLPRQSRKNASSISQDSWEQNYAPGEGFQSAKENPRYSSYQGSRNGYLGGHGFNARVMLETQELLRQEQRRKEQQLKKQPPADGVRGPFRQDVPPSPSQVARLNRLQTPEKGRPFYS

Substance | binding [1] | binding [2]
Pard3 (endogenous, cerebellar granule neurons) (from UniProt Q99NH2 1-1333) | binds | 
extracellular domain of Dcc (from UniProt P70211 26-1097) (domain or fragment) |  | binds

From PMC11469462
